Test results as given in the supplement of paper PMC12024529.
Where a name gives a salt, the structure may show the parent alone. This is one part of the list. Baselines shift from plate to plate; read single values as rough.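 HEK293 lines stably express B-domain-deleted factor VIII fused to Gaussia luciferase, wild type or a misfolding-prone missense mutant. Scores equal triplicate-well mean luminescence minus DMSO mean, divided by DMSO standard deviation; scores of 2 or higher are hits. Low scores may indicate reduced secretion or worse cell viability.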

Tested on: HEK293 WT BDD-FVIII-Gluc
Test: secreted FVIII-Gluc luciferase Z-score vs DMSO control; higher = more FVIII-Gluc secretion
Conditions: 5 µM; 24 h

Row | SMILES | secreted FVIII-Gluc luciferase Z-score
1 | O=C1Cc2cc(CCN3CCN(c4nsc5ccccc45)CC3)c(Cl)cc2N1 [Ziprasidone hydrochloride] | inactive: -5.14
2 | CC(=O)OCC[N+](C)(C)C [Acetylcholine chloride] | inactive: 0.0816
3 | COc1ccc2cc1Oc1ccc(cc1)C[C@H]1c3c(cc4c(c3Oc3cc5c(cc3OC)CCN(C)[C@@H]5C2)OCO4)CCN1C [Cepharanthine] | inactive: -1.44
4 | OC[C@@H](O)[C@@H](O)[C@H](O)[C@H](O)CO [D-Mannitol (Osmitrol)] | inactive: 0.49
5 | Cc1cc(C2CCCCC2)n(O)c(=O)c1 [Ciclopirox (Penlac)] | inactive: 0.413
6 | C[C@@H]1C[C@H]2[C@@H]3CCC4=CC(=O)C=C[C@]4(C)[C@@]3(Cl)[C@@H](O)C[C@]2(C)[C@@]1(OC(=O)c1ccco1)C(=O)CCl [Mometasone furoate] | inactive: 1.88
7 | CC1CCc2c(N3CCC(O)CC3)c(F)cc3c(=O)c(C(=O)O)cn1c23 (centres undefined) [Nadifloxacin] | inactive: 0.205
8 | CC(=O)Oc1cc2c(s1)CCN(C(C(=O)C1CC1)c1ccccc1F)C2 (centres undefined) [Prasugrel (Effient)] | inactive: 1.44
9 | CC(C)CN(C[C@@H](O)[C@H](Cc1ccccc1)NC(=O)O[C@H]1CCOC1)S(=O)(=O)c1ccc(N)cc1 [Amprenavir (Agenerase)] | inactive: -0.647
10 | CCn1cc(C(=O)O)c(=O)c2ccc(C)nc21 [Nalidixic acid (NegGram)] | inactive: 0.696
11 | S=c1[nH]cnc2nc[nH]c12 [Mercaptopurine] | inactive: -3.32
12 | O=S(=O)(O)Oc1ccc(C(c2ccc(OS(=O)(=O)O)cc2)c2ccccn2)cc1 [Sodium Picosulfate] | inactive: -1.16
13 | O=C(O)c1cc(-c2ccccc2)nc2ccccc12 [Cinchophen] | inactive: 0.616
14 | c1ccc(CN(CC2=NCCN2)c2ccccc2)cc1 [Antazoline HCl] | inactive: 0.167
15 | OC[C@H]1O[C@H](O[C@]2(CCl)O[C@H](CCl)[C@@H](O)[C@@H]2O)[C@H](O)[C@@H](O)[C@H]1Cl [Sucralose] | inactive: -0.413
16 | CS(=O)(=O)c1ccc([C@@H](O)[C@@H](CO)NC(=O)C(Cl)Cl)cc1 [Thiamphenicol (Thiophenicol)] | inactive: 0.0322
17 | CCCC(=O)Nc1ccc(OCC(O)CNC(C)C)c(C(C)=O)c1 (centres undefined) [Acebutolol HCl] | inactive: -0.997
18 | CS(=O)(=O)CCNCc1ccc(-c2ccc3ncnc(Nc4ccc(OCc5cccc(F)c5)c(Cl)c4)c3c2)o1 [Lapatinib Ditosylate (Tykerb)] | inactive: -0.667
19 | COc1c(N2C[C@@H]3CCCN[C@@H]3C2)c(F)cc2c(=O)c(C(=O)O)cn(C3CC3)c12 [Moxifloxacin hydrochloride] | inactive: -4.91
20 | CNCCCC12CCC(c3ccccc31)c1ccccc12 [Maprotiline hydrochloride] | inactive: 0.0608

Row | SMILES | secreted FVIII-Gluc luciferase Z-score
21 | COC(=O)C1=C(C)NC(C)=C(C(=O)OC2CCCN(Cc3ccccc3)C2)C1c1cccc([N+](=O)[O-])c1 (centres undefined) [Benidipine hydrochloride] | inactive: -1.13
22 | CC(NC(=O)Cc1cc(F)cc(F)c1)C(=O)NC(C(=O)OC(C)(C)C)c1ccccc1 (centres undefined) | inactive: -1.24
23 | CC(=O)OCC(=O)[C@H]1CC[C@H]2[C@@H]3CCC4=CC(=O)CC[C@]4(C)[C@H]3CC[C@]12C [Deoxycorticosterone acetate] | inactive: 0.663
24 | CC(C)NCC(O)c1ccc(O)c(O)c1 (centres undefined) [Isoprenaline hydrochloride] | inactive: 0.792
25 | CN(C/C=C/C#CC(C)(C)C)Cc1cccc2ccccc12 [Terbinafine hydrochloride (Lamisil)] | inactive: 0.109
26 | Cc1cc(NS(=O)(=O)c2ccc(N)cc2)no1 [Sulfamethoxazole] | inactive: -0.617
27 | O=C(C1CCCCC1)N1CC(=O)N2CCc3ccccc3C2C1 (centres undefined) [Praziquantel (Biltricide)] | inactive: -2.19
28 | CCCCOc1cc(C(=O)OCCN(CC)CC)ccc1N [Oxybuprocaine HCl] | inactive: -1.15
29 | CCCCNC(=O)NS(=O)(=O)c1ccc(C)cc1 [Tolbutamide] | inactive: -0.575
30 | O=C(CCNNC(=O)c1ccncc1)NCc1ccccc1 [Nialamide] | inactive: -1.05
31 | CO[C@H]1/C=C/O[C@@]2(C)Oc3c(C)c(O)c4c(O)c(c5c(nc6cc(C)ccn65)c4c3C2=O)NC(=O)/C(C)=C\C=C\[C@H](C)[C@H](O)[C@@H](C)[C@@H](O)[C@@H](C)[C@H](OC(C)=O)[C@@H]1C [Rifaximin (Xifaxan)] | inactive: 1.44
32 | Nc1nc2ccc(OC(F)(F)F)cc2s1 [Riluzole (Rilutek)] | inactive: 0.00217
33 | COc1ccc(C2CNC(=O)C2)cc1OC1CCCC1 (centres undefined) [Rolipram] | inactive: -14.1
34 | CC(C)(Oc1ccc(CCNC(=O)c2ccc(Cl)cc2)cc1)C(=O)O [Bezafibrate] | active: 6.82
35 | CC1(C)S[C@@H]2[C@H](NC(=O)[C@H](N)c3ccc(O)cc3)C(=O)N2[C@H]1C(=O)O [Amoxicillin sodium (Amox)] | inactive: 1.22
36 | CCOC(=O)OC(C)OC1=C(C(=O)Nc2ccccn2)N(C)S(=O)(=O)c2ccccc21 (centres undefined) [Ampiroxicam] | inactive: -0.857
37 | CN/C(=N\CCSCc1nc[nH]c1C)NC#N [Cimetidine (Tagamet)] | inactive: -2.99
38 | CNC(=C[N+](=O)[O-])NCCSCc1csc(CN(C)C)n1 [Nizatidine] | inactive: -2.55
39 | CC(=O)NC[C@H]1CN(c2ccc(N3CCOCC3)c(F)c2)C(=O)O1 [Linezolid (Zyvox)] | inactive: -4.65

Some of the entries so far, as tab-separated lines.
Row	SMILES	secreted FVIII-Gluc luciferase Z-score
29	CCCCNC(=O)NS(=O)(=O)c1ccc(C)cc1 [Tolbutamide]	inactive: -0.575
33	COc1ccc(C2CNC(=O)C2)cc1OC1CCCC1 (centres undefined) [Rolipram]	inactive: -14.1
